In patent EP0043274A2, “Antithrombotic treatment” (priority 1980, dated 1982):
Several values for one entry are separate records, joined by “and”; a condition that tells them apart may be missing. Equal values may be shown once.

Tested on: RATS
Assay: Rats fed bait containing 0.5% sodium bisulfite
Type: in vivo
Text: Five rats, each in a separate cage, were given a bait containing 0.5 percent by weight of sodium bisulfite. The bait consisted of cracked grains (wheat, corn, millet, and corn meal). The amounts of bait eaten are summarized for an eleven day period.

Sodium bisulfite
g bait eaten (1 day, rats 1-5): 27.8 g and 25.9 g and 26.7 g and 28.0 g and 27.0 g
g bait eaten (4 days): 18.9 g and 10.1 g and 10.4 g
g bait eaten (9 days): 26.8 g and 27.8 g and 25.7 g
g bait eaten (10 days): 22.7 g and 26.2 g and 26.3 g
g bait eaten (11 days): 23.8 g and 21.0 g and 22.8 g
g bait eaten (line headed 'days' between 2 days and 4 days): 19.2 g and 19.4 g and 11.4 g
